Results from patent publication US20250101038A1, “COMPOUNDS” (priority 2021, published 2025).
Read-outs that look alike come from different tables or passages of the source. Structures were worked out from names or drawings and are uncertain.

The chains behind the UniProt entries cited, without tags or fusion partners. Residues count along the entry.
UniProt P41595, whole entry: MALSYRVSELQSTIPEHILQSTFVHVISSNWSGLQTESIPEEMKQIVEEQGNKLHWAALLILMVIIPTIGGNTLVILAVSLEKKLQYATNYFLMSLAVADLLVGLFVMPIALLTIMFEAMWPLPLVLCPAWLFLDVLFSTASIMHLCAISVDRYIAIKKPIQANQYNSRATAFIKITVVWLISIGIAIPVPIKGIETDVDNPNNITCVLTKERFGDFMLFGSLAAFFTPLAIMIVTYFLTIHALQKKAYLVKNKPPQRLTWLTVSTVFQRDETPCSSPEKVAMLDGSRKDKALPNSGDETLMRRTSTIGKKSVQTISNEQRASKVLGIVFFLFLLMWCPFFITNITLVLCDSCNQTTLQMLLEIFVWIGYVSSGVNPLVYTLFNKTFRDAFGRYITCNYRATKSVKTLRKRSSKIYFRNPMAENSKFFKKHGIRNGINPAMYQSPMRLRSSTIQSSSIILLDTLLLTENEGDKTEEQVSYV
UniProt P28335, 33-458 limits assumed: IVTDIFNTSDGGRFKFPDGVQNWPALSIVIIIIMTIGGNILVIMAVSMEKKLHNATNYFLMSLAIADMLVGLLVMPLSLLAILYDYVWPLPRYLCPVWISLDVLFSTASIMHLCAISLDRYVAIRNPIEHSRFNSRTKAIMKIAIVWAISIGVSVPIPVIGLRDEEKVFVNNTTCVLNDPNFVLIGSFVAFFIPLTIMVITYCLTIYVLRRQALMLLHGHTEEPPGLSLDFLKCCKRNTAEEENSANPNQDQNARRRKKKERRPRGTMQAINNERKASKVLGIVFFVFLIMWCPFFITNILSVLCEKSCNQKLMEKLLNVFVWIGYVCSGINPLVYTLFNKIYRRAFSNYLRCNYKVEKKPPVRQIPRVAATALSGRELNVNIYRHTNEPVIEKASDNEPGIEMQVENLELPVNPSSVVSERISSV
UniProt P28223, whole entry: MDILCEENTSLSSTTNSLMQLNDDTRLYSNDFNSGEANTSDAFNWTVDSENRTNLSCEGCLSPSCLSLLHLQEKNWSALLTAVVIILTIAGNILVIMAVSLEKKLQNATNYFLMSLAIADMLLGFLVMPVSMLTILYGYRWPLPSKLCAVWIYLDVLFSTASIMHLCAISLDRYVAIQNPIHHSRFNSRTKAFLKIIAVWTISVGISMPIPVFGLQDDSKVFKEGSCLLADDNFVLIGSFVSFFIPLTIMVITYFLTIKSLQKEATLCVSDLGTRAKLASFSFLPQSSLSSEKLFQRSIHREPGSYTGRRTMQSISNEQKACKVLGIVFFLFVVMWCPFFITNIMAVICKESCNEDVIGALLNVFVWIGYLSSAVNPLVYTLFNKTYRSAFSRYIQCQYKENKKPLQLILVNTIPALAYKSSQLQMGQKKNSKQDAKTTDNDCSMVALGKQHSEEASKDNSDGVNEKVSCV

How the values were obtained:
5-HT2B receptor = 5-HT2B receptor (Homo sapiens, UniProt P41595); conditions: for EC50: read-out: 5-HT2B EC50
5-HT2C receptor = 5-HT2C receptor (Homo sapiens, UniProt P28335); conditions: agonist activity, Ca2+ flux, HEK293 cells; for EC50: read-out: 5-HT2C EC50
5-HT2A receptor = 5-HT2A receptor (Homo sapiens, UniProt P28223); test: FLIPR Ca2+ flux functional assay, 5-HT2A; type: cell-based; conditions: for 5-HT2A Emax: agonist activity, HEK293 cells
Description: Activity at 5-HT2A, 5-HT2B and 5-HT2C receptors was determined using a FLIPR Ca^2+ flux assay at WuXi AppTec Co. Ltd. (Hong Kong) Discovery Biology Unit according to their standard protocols. Briefly, stably transfected cells expressing the receptor of interest (HEK293 for 5-HT2A and 5-HT2C; CHO-K1 for 5-HT2B) were grown and plated in a 384 well plate and incubated at 37° C. and 5% CO2 overnight. A 250 mM stock solution of probenecid in FLIPR calcium assay buffer (10 mL) was freshly prepared and combined with a fluorescent dye (Fluo-4 Direct) to give a final assay concentration of 2.5 mM. Reference compounds were 4-fold serially diluted and the screening compounds were 3-fold serially diluted in 100% DMSO for 10 points using Agilent Bravo, and 750 nL was added to a 384 well compound plate using Echo along with 30 μL assay buffer. The fluorescent dye was then added to the assay plate along with assay buffer to a final volume of […]. The cell plate was incubated for 50 min at 37° C. and 5% CO2 and placed into the FLIPR Tetra along with the compound plate. 10 μL of references and compounds were then transferred from the compound plate into the cell plate and the fluorescent signal was read.

[1] = agonist activity, Ca2+ flux, CHO-K1 cells, tested form: oxalate
[2] = read-out: 5-HT2A EC50, agonist activity, HEK293 cells, tested form: oxalate
[3] = agonist activity, Ca2+ flux, CHO-K1 cells, tested form: fumarate
[4] = read-out: 5-HT2A EC50, agonist activity, HEK293 cells, tested form: fumarate
[5] = agonist activity, Ca2+ flux, CHO-K1 cells, tested form: HCl

Structure (SMILES)	5-HT2B Emax (5-HT2B receptor; [3])	EC50 (5-HT2B receptor; [3])	5-HT2C Emax (5-HT2C receptor; tested form: fumarate)	EC50 (5-HT2C receptor; tested form: fumarate)	5-HT2A Emax (5-HT2A receptor; tested form: fumarate)	EC50 (5-HT2A receptor; [4])	also measured
COc1cc(C)c2[nH]cc(CCN(C)C(C)C)c2c1							5-HT2B Emax (5-HT2B receptor; [1]): 1.72%; EC50 (5-HT2B receptor; [1]): > 10 µM; 5-HT2C Emax (5-HT2C receptor; tested form: oxalate): 19.78%; EC50 (5-HT2C receptor; tested form: oxalate): > 10 µM; 5-HT2A Emax (5-HT2A receptor; tested form: oxalate): 90.53%; EC50 (5-HT2A receptor; [2]): 0.0642 µM
CCN(C)CCc1c[nH]c2ccc(OC)c(F)c12							5-HT2B Emax (5-HT2B receptor; [1]): 5.29%; EC50 (5-HT2B receptor; [1]): > 10 µM; 5-HT2C Emax (5-HT2C receptor; tested form: oxalate): 93.06%; EC50 (5-HT2C receptor; tested form: oxalate): 0.0254 µM; 5-HT2A Emax (5-HT2A receptor; tested form: oxalate): 99.59%; EC50 (5-HT2A receptor; [2]): 0.0521 µM
COc1cc(C)cc2[nH]cc(CCN(C)C(C)C)c12	0.35%	> 10 µM	27.92%	2.22 µM	70.74%	0.0567 µM	
CCN(C)CCc1c[nH]c2cc(C)cc(OC)c12	0.25%		54.66%	0.305 µM	64.68%	0.0713 µM	EC50 (5-HT2B receptor; tested form: fumarate): > 10 µM
COc1ccc2[nH]cc(CCN(C(C)C)C(C)C)c2c1F	107.28%	0.481 µM	90.69%	0.895 µM	95.38%	0.114 µM	
CCN(CC)CCc1c[nH]c2ccc(OC)c(F)c12	33.44%	> 10 µM	86.34%	0.418 µM	88.19%	0.12 µM	
COc1cc(C)cc2[nH]cc(CCN(C(C)C)C(C)C)c12	68.08%	1.02 µM	63.93%	6.12 µM	53.06%	7.49 µM	
CCN(CC)CCc1c[nH]c2cc(C)cc(OC)c12	1.13%	> 10 µM	54.82%	1.68 µM	57.54%	0.28 µM	
COc1ccc2[nH]cc(CCN(C)C(C)C)c2c1F	15.06%	> 10 µM	87.22%	0.343 µM	89.89%	0.0995 µM	
CCN(CCc1c[nH]c2c(C)cc(OC)cc12)C(C)C							5-HT2B Emax (5-HT2B receptor; [5]): 5.84%; EC50 (5-HT2B receptor; [5]): > 10 µM; 5-HT2C Emax (5-HT2C receptor; tested form: HCl): 82.76%; EC50 (5-HT2C receptor; tested form: HCl): 0.913 µM; 5-HT2A Emax (5-HT2A receptor; tested form: HCl): 73.14%; EC50 (5-HT2A receptor; read-out: 5-HT2A EC50, agonist activity, HEK293 cells, tested form: HCl): 0.844 µM
